Test [1] deals with T1, ENAP1-YFP-HA (Arabidopsis) (UniProt Q8VZI9).
T1 sequence: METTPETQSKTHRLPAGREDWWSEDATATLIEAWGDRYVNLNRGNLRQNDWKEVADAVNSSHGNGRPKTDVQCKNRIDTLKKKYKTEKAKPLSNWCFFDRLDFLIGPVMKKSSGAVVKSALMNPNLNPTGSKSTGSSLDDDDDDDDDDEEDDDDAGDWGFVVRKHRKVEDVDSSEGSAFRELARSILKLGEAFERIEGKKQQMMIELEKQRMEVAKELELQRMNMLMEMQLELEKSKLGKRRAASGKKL
Description: co-IP; transgenic Arabidopsis expressing MYB44-3xMyc and ENAP1/2-YFP-HA; leaves of three-week plants untreated (Control) or air-dried 4 h (Dehydration); GFP-Trap, 4°C 2 h, empty trap (IgG) as control; anti-Myc and anti-HA blots.

Chains of the proteins cited; added tags and fusions are not shown.
UniProt Q9FDW1: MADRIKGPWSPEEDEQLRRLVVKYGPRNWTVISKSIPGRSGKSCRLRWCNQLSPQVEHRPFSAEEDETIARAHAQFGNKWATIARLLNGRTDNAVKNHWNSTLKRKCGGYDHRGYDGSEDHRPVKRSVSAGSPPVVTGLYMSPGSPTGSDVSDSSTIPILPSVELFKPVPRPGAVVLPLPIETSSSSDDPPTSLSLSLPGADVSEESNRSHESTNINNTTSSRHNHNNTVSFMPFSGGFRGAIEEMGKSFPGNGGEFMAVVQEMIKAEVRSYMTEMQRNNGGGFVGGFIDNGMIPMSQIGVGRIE

The target of test [2] is MYB44-mCherry-FLAG (Arabidopsis) (UniProt Q9FDW1). Description: co-IP; tobacco leaves co-expressing VYCE-HA-HDT4 and MYB44-mCherry-FLAG; half leaf untreated (D0), half air dried 4 h (D4); DYKDDDDK Fab-Trap, 4°C 2 h, empty trap as control; anti-FLAG and anti-HA blots.
Test [3] addresses MYB44 in pDEST-GWVYNE (BiFC construct) (Arabidopsis) (UniProt Q9FDW1). Description: split reporter; BiFC in tobacco leaves, Agrobacterium co-infiltration with p19; fluorescence by confocal microscopy two days after infiltration.
Test [4] concerns the target MYB44 full length protein, BD fusion (Arabidopsis) (UniProt Q9FDW1). Description: two-hybrid; AD (pEXPAD502) and BD (pDBLeu) vector pairs co-transformed to yeast strain AH109; growth on SD/-Trp-Leu-His with 3'AT.

These are yes or no findings as the source states them, for the method shown. For some of these results: In cells and extracts the contact can be indirect. Some results given as binding are weak or reduced against the parent protein; the word gives no strength. Where a sequence is shown, tags or fusion partners need not be part of it.

In the case of MYB44-3xMyc (from UniProt Q9FDW1 1-305), the binding entry in test [1] was “binds”.

B1: His-HDT4 (enzyme, Arabidopsis, UniProt Q9M4T3 1-203, looked up)
chain: MEFWGIEIKPGKPFKVIQKDGFMVHASQVTLGDVEKVKKDETFAVYVKIGDDENGFMIGNLSQKFPQFSIDLYLGHEFEISHNSTSSVYLIGYRTFDAFDELDEEIDSDSELDEYMEQQIAALPQNEINPEEDDESDSDEMGLDEDDDSSDEEDVEAEAPLKVAPPSKKMPNGAFEIAKGGKKNKSSGGKKRCPFPCGPSCKK
notes: HDT4, histone deacetylase of the HD2 family, Arabidopsis; the CDS ligated to pET28a; source: E. coli, purified (Ni-NTA agarose resin)
Consider B1, for which the binding result in test [2] and in test [3] was “binds” each time.

B2: MBP-ENAP1 (natural protein, Arabidopsis, UniProt Q8VZI9 1-249, looked up)
chain: METTPETQSKTHRLPAGREDWWSEDATATLIEAWGDRYVNLNRGNLRQNDWKEVADAVNSSHGNGRPKTDVQCKNRIDTLKKKYKTEKAKPLSNWCFFDRLDFLIGPVMKKSSGAVVKSALMNPNLNPTGSKSTGSSLDDDDDDDDDDEEDDDDAGDWGFVVRKHRKVEDVDSSEGSAFRELARSILKLGEAFERIEGKKQQMMIELEKQRMEVAKELELQRMNMLMEMQLELEKSKLGKRRAASGKKL
notes: ENAP1, Arabidopsis, AT3G11100; the CDS ligated to pVP13 (His tag removed); source: E. coli, purified (Amylose resin)
Turning to B2, in test [4], the binding entry is recorded as “binds”.

These data come from publication PMC9681084, “MYB44-ENAP1/2 restricts HDT4 to regulate drought tolerance in Arabidopsis” (PLOS Genetics, 2022).
